Test results taken from PMC5333395, “Assessing histone demethylase inhibitors in cells: lessons learned” (Epigenetics & Chromatin, 2017).
Some entries of the source have several records that differ or are many. This list holds those alone. There may be further records. The values listed for one entry differ, and nothing given here explains why; some may be repeats, others may stem from another dose, organism or construct than stated.

Tested on: Caco-2 human colon carcinoma cell line
Assay: Caco-2 permeability
Settings: P app

In the case of `CCN(CCN(C)C)C(=O)CNCc1cc(C(=O)O)ccn1` [KDOAM-20], the “Caco-2 (A to B flux)” value is reported as “low cell permeability and <0.76 x10-6 cm/s”.
